This data set addresses T1, LipR (Bacillus thuringiensis BMB171) (UniProt A0A0G3DYA8).
T1 sequence (looked up, limits assumed): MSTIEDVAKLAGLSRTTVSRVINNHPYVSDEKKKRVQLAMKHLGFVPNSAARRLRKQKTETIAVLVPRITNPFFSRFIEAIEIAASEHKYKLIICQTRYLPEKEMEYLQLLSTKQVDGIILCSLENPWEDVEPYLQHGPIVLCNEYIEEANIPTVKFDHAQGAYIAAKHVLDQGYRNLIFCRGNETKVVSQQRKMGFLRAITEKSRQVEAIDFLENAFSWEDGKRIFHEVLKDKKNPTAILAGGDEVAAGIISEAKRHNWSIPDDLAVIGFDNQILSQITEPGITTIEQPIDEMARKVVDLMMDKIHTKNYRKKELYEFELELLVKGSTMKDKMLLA
As to the kind of experiment: EMSA. The settings on record: Ni2+ (increasing, 2.5 mM in Fig 5A); LipR: 25 mM Tris pH 8.5-9, 150 mM NaCl, 10% glycerol; CcpA/AbrB: 50 mM Tris-HCl pH 7.5, 10 mM MgCl2, 1 mM DTT, 100 mM NaCl; 28 C, 25 min, 10 ul; recombinant protein; protein details: C-terminal His (pET-28a); label: 5' FAM or Cy5 when labeled; probe letters rebuilt from the primers and the genome.

For at least one entry, the source does not settle the construct or the ends of the probe. Weaker means in comparison with the reference protein, sequence or condition of that experiment. Tags and fusion partners may be left off the protein sequences shown.

For the sequence “GGGCCATGGTACAAACGTATGGGCTTTGTAGAAGAAGGCAGACAACGAAAGCAAATTAAATATGAAGATGGATCATATGGAGATGACGTATTGATGGGGTTTTATATTGAATAAAGGATATATGGTATTAAGAAAAGGAATGTACATAACGTAAACTTCTAAAAGCAGTATAAATTCCCCTGCATTAACAGACTTTTCCCTATGTATAATATTAATATAGTAAAATCATAACAACCGATATTGCAGTTTCCAATAATATACTATATAATCAATTTAAGAAAACGTTTTCATGGATCCCC (double strand) [PlipR promoter]”, the binding result is reported as “binds more weakly”.

The record behind these values is paper PMC10989752, “LipR functions as an intracellular pH regulator in Bacillus thuringiensis under glucose conditions”.
